From paper doi:10.1101/2020.04.03.022855 (bioRxiv, 2020)
No constants are given. Whether binding was seen depends on the method and setting. Some binding calls cover weakened binding; strength is not graded here.

Target: T1, OmpC·Skp3 complex (OmpC G8C-D335C, dual-labelled, with three Skp) (Escherichia coli) (UniProt P06996+P0AEU7)
T1 sequence (chain, AF555 and AF647 maleimide dyes on the cysteines at 8 and 335) 1: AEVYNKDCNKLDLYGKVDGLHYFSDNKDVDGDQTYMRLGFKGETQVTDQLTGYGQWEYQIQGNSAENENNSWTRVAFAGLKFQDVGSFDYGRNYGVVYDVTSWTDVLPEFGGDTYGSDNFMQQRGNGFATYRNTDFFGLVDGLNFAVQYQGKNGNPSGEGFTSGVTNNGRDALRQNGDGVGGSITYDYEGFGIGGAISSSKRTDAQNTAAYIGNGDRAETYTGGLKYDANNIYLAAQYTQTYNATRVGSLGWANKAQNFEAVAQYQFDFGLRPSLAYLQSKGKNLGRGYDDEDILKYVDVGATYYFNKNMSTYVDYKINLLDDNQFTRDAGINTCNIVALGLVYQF
T1 sequence (chain, AF555 and AF647 maleimide dyes on the cysteines at 8 and 335) 2: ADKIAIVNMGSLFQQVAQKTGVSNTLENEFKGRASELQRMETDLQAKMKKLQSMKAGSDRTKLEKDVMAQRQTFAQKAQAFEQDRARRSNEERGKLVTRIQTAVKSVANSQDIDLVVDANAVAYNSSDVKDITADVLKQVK
Test: single-molecule FRET

binding: binds
B1: Seventeen kilodalton protein (Skp), unlabelled (natural protein, Escherichia coli, UniProt P0AEU7 21-161, looked up)
chain: T1 sequence (chain, AF555 and AF647 maleimide dyes on the cysteines at 8 and 335) 2
